Data as given in doi:10.1101/2020.01.13.904870 (bioRxiv, 2020).
Positions count from the first letter of the chain named. Names and notes keep the numbering of the source. No constants are given. Whether binding was seen depends on the method and setting. Some results given as binding are weak or reduced against the parent protein; the word gives no strength. Where a sequence is shown, tags or fusion partners need not be part of it. One block for each binder: values may come before it.

Tests used:
[1] = molecular target: Flag-tagged HsFN3K, wild type, in HEK293T cells (human) (UniProt Q9H479); test: SDS-PAGE and anti-Flag immunoblot of total cell lysate
[2] = molecular target: Flag-tagged HsFN3K C24A mutant, in HEK293T cells (human) (UniProt Q9H479); test: as above

binding [1]: binds
B1: Recombinant His-HsFN3K (human Fructosamine-3-kinase), wild type (enzyme, UniProt Q9H479 1-309, looked up)
chain: MEQLLRAELRTATLRAFGGPGAGCISEGRAYDTDAGPVFVKVNRRTQARQMFEGEVASLEALRSTGLVRVPRPMKVIDLPGGGAAFVMEHLKMKSLSSQASKLGEQMADLHLYNQKLREKLKEEENTVGRRGEGAEPQYVDKFGFHTVTCCGFIPQVNEWQDDWPTFFARHRLQAQLDLIEKDYADREARELWSRLQVKIPDLFCGLEIVPALLHGDLWSGNVAEDDVGPIIYDPASFYGHSEFELAIALMFGGFPRSFFTAYHRKIPKAPGFDQRLLLYQLFNYLNHWNHFGREYRSPSLGTMRRLLK

binding [2]: no binding
B2: Flag-tagged HsFN3K C24A mutant, in HEK293T cells (enzyme, UniProt Q9H479 1-309)
chain: B1 chain with C24A
